# Measured values from the supplement of paper PMC6411743.
# Amino acid sequences for entries named in this document (tags omitted). A change or cut given only in a name is not applied to a line headed by its entry.
# UniProt Q8IX12: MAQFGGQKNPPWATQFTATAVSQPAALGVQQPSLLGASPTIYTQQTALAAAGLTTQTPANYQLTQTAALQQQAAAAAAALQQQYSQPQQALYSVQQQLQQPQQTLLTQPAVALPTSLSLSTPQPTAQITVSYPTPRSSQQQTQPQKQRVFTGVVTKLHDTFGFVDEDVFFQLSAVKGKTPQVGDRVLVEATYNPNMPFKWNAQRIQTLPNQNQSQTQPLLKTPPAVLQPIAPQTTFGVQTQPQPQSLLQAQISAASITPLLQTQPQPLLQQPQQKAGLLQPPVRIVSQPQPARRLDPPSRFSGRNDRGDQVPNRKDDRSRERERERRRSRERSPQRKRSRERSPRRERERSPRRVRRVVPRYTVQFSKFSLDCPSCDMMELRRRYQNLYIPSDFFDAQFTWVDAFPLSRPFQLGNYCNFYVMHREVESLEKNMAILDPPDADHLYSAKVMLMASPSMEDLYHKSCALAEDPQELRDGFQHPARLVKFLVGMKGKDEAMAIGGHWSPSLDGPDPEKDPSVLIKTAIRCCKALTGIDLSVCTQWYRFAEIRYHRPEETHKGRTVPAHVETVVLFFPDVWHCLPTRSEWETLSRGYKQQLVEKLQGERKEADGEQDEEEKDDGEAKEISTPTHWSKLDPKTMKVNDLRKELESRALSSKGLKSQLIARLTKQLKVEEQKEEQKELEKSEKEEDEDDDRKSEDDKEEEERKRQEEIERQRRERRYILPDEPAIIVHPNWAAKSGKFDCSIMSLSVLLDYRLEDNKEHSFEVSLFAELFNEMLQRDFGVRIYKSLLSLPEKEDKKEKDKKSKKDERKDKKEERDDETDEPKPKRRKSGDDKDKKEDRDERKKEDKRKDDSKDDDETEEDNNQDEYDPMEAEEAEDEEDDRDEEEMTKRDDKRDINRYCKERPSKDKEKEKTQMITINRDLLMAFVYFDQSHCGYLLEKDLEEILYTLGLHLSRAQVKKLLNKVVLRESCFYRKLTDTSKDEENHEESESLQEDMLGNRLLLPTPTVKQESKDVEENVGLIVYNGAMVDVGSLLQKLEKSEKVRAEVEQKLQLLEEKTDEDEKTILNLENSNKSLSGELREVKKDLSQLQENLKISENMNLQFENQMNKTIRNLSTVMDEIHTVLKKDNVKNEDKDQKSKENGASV
# UniProt Q8IVD9: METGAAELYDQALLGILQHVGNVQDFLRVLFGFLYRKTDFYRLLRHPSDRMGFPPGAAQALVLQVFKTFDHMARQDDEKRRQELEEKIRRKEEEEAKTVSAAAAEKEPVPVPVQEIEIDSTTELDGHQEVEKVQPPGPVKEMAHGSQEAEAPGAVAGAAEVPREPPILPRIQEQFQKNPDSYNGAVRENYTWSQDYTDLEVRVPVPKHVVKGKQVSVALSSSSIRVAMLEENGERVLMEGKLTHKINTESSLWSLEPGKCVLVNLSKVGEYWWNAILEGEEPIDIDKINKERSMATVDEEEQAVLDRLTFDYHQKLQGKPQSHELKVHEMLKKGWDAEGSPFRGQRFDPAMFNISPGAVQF
# UniProt Q8IYL3: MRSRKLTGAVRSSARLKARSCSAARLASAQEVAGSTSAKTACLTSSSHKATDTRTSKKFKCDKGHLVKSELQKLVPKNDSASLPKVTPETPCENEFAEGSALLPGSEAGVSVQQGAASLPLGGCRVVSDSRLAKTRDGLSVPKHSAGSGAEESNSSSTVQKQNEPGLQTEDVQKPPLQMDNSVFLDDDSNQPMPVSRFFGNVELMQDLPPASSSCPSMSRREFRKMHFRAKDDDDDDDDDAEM
# UniProt Q8N573: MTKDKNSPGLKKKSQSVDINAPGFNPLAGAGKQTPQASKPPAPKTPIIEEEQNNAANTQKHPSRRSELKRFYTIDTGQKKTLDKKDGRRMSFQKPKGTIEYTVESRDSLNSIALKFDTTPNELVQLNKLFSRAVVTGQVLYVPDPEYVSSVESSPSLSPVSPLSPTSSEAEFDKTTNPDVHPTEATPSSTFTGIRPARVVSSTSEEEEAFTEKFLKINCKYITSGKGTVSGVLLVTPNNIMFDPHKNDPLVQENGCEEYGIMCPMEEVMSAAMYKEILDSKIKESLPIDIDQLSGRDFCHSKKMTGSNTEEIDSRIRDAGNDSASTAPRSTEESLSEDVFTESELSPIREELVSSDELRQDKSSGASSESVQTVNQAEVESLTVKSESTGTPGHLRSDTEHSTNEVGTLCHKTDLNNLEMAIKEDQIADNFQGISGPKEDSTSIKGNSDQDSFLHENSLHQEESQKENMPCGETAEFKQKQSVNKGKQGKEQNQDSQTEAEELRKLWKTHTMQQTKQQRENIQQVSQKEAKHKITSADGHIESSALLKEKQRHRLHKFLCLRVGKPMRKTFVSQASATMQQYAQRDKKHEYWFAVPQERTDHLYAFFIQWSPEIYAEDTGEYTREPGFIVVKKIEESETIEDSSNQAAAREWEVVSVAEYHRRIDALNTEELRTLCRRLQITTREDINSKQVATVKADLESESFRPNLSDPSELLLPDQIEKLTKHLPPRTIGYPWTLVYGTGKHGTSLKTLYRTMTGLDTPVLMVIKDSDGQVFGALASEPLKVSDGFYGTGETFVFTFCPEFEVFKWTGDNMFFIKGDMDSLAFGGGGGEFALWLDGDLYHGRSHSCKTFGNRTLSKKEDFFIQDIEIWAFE
# UniProt Q8NHM5: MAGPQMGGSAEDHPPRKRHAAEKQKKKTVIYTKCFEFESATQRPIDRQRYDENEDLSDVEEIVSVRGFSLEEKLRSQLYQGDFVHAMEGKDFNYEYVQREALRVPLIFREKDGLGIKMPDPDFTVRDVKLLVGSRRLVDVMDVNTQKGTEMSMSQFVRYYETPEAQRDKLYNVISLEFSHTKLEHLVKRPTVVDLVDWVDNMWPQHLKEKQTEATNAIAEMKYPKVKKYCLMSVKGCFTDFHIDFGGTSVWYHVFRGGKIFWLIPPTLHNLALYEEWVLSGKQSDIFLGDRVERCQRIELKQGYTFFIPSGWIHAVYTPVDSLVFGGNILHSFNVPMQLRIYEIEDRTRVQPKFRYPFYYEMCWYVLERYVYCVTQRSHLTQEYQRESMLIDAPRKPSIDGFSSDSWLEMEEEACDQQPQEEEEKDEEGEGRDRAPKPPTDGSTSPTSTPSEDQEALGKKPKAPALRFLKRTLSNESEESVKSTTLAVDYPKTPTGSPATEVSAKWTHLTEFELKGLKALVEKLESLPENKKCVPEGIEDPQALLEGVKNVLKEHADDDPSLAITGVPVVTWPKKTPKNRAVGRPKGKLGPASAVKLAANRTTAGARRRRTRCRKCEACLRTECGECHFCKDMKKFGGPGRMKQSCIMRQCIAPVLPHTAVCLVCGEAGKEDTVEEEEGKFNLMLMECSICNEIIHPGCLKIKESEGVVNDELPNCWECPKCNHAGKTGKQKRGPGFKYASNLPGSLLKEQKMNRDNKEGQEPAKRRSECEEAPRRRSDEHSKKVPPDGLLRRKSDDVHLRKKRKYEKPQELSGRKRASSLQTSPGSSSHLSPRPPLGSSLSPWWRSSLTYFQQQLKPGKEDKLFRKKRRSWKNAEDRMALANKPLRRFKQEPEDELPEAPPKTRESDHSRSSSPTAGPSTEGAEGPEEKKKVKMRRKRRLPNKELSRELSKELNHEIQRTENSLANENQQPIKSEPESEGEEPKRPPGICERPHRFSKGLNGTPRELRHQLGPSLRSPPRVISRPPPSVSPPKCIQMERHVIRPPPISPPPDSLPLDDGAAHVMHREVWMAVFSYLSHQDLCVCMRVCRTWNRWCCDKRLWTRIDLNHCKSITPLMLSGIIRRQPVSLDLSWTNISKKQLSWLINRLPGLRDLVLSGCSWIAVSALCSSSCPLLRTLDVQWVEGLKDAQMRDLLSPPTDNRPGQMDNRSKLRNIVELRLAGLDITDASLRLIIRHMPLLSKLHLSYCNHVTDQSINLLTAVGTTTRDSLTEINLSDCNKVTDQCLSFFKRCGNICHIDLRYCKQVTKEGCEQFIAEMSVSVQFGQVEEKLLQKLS
# UniProt Q8N0X4: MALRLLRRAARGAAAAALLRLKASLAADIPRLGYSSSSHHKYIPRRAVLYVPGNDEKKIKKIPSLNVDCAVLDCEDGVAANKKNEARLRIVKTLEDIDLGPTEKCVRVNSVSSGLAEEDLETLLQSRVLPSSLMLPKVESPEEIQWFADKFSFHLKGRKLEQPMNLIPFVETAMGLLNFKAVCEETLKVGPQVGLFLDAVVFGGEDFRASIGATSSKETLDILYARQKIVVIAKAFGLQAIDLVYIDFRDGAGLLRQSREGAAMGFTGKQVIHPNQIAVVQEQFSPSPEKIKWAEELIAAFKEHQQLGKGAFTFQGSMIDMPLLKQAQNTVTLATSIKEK
# UniProt Q8NBA8: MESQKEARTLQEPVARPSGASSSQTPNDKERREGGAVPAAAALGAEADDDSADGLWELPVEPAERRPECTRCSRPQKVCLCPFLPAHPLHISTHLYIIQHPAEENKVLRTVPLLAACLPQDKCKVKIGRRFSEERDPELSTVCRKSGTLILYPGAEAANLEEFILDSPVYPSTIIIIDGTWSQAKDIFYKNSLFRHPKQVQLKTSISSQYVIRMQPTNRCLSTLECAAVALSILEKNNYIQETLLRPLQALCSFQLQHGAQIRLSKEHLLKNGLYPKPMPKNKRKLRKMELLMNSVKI
# UniProt Q8NBL1: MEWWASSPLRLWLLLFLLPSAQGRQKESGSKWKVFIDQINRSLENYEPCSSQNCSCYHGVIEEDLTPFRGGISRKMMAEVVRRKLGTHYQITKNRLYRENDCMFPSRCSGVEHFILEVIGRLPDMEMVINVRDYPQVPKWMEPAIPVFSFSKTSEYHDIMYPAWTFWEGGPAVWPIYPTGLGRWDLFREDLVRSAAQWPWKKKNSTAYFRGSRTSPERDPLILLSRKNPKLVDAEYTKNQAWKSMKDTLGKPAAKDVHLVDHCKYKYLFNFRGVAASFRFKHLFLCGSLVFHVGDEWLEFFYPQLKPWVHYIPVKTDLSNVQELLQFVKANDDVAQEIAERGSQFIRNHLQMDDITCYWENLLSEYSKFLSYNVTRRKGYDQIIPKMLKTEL
# UniProt Q8N335: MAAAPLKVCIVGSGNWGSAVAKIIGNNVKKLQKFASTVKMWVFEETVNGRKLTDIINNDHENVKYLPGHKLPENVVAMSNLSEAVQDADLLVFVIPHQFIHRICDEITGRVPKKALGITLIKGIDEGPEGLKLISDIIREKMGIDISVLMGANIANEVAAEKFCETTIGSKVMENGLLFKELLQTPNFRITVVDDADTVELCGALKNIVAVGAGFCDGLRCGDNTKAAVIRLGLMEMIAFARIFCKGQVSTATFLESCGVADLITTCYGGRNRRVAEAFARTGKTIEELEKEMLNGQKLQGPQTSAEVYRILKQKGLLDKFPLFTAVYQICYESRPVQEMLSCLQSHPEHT
# UniProt Q8IZ21: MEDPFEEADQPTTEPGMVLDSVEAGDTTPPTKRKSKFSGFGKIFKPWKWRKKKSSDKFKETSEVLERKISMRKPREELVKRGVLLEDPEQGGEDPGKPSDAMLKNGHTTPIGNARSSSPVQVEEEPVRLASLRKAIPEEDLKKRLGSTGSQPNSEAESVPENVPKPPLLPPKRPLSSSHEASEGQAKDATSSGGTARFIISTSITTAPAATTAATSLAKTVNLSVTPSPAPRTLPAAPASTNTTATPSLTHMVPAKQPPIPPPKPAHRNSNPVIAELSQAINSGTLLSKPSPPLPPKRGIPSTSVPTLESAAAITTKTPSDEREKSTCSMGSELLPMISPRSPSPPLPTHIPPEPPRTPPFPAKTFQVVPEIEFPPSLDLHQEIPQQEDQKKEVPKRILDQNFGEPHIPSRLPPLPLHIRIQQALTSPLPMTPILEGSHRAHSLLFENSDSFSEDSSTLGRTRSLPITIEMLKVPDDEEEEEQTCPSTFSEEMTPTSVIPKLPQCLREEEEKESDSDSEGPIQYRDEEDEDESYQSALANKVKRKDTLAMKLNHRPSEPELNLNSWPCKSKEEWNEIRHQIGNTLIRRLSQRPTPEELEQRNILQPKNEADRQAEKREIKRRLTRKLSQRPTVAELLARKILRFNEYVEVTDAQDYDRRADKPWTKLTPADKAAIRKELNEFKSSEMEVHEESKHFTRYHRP
# UniProt Q8TAP9: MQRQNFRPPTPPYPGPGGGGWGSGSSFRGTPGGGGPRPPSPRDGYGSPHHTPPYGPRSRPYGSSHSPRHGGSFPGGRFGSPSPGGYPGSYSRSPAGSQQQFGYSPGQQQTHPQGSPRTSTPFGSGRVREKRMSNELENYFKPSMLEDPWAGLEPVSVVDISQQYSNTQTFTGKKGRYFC
# UniProt Q8TAP8: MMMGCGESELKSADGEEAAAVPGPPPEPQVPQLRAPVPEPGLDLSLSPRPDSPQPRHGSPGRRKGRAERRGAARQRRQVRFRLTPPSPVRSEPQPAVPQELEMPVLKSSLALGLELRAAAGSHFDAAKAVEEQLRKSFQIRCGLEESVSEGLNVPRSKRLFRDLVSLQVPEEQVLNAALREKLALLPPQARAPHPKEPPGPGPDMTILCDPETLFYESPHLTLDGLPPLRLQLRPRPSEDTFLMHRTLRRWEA
# ± gives the standard deviation of the averaged measurements. This is a selection; strong and weak results do not stand in their true shares.
# Compound: Nc1ncnc2c1ncn2[C@@H]1O[C@H](COP(=O)(O)OP(=O)(O)OP(=O)(O)O)[C@@H](O)[C@H]1O [adenosine triphosphate]
# Experiment: NP40-soluble protein abundance relative to vehicle (solubility fold change) (ratio); higher = more soluble protein in presence of ATP
# Method in brief: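 Crude Jurkat lysate, prepared by Dounce homogenisation, was exposed to eight concentrations from 0.1 to 10 mM for 10 min at room temperature and then 3 min at 37 °C. Solubilisation used 0.8% NP40 with benzonase for 60 min at 4 °C, followed by ultracentrifugation and TMT labelling of the supernatant for LC-MS/MS. After vsn normalisation of intensities, each value is the fold change against the detergent-processed vehicle within each replicate, across three independent experiments.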
Target,NP40-soluble protein abundance (concentration: 1mM),NP40-soluble protein abundance (concentration: 2mM),NP40-soluble protein abundance (concentration: 4mM),NP40-soluble protein abundance (concentration: 6mM),NP40-soluble protein abundance (concentration: 8mM),NP40-soluble protein abundance (concentration: 10mM)
ANKRD44 (UniProt Q8N8A2),0.985 ± 0.086,0.952 ± 0.029,0.973 ± 0.056,0.965 ± 0.046,1 ± 0.07,0.982 ± 0.043
UniProt Q8NDV3 and related entries,0.941 ± 0.046,0.898 ± 0.046,0.858 ± 0.043,0.928 ± 0.058,0.872 ± 0.078,0.852 ± 0.034
ZNF687 (UniProt Q8N1G0),1.06 ± 0.067,1.03 ± 0.071,1.04 ± 0.071,1.13 ± 0.15,1.09 ± 0.12,1.11 ± 0.068
UBR1 (UniProt Q8IWV7),1.09 ± 0.081,1.05 ± 0.11,1.07 ± 0.099,0.985 ± 0.041,1.04 ± 0.062,0.995 ± 0.031
UniProt Q8IX12 and related entries,0.982 ± 0.05,0.978 ± 0.048,1.05 ± 0.062,1.11 ± 0.054,1.15 ± 0.044,1.18 ± 0.05
NUDCD3 (UniProt Q8IVD9),0.946 ± 0.017,0.9432 ± 0.0054,0.921 ± 0.011,0.932 ± 0.016,0.909 ± 0.03,0.913 ± 0.039
UniProt Q8N371,1.06 ± 0.055,1.09 ± 0.051,1.05 ± 0.02,1.01 ± 0.028,1.03 ± 0.1,1.05 ± 0.077
C1orf174 (UniProt Q8IYL3),1.07 ± 0.097,1.21 ± 0.077,1.27 ± 0.17,1.32 ± 0.19,1.22 ± 0.053,1.23 ± 0.063
UniProt Q8ND82 and related entries,1 ± 0.081,0.9769 ± 0.0073,1.03 ± 0.086,1 ± 0.077,0.936 ± 0.04,0.987 ± 0.064
PDPR (UniProt Q8NCN5),1.03 ± 0.11,1.01 ± 0.085,1.02 ± 0.085,0.929 ± 0.12,1.03 ± 0.033,0.992 ± 0.053
UniProt Q8N573 and related entries,0.985 ± 0.02,1 ± 0.028,0.979 ± 0.047,0.988 ± 0.076,0.939 ± 0.038,0.974 ± 0.018
UniProt Q8IWA5-2,0.94 ± 0.035,0.977 ± 0.013,0.926 ± 0.048,0.946 ± 0.062,0.899 ± 0.038,0.914 ± 0.022
UniProt Q8TAA3-5|Q8TAA3,0.921 ± 0.07,0.948 ± 0.041,0.968 ± 0.039,0.931 ± 0.0098,0.878 ± 0.025,0.933 ± 0.062
UniProt Q8NHM5 and related entries,1.12 ± 0.053,1.11 ± 0.085,1.12 ± 0.1,1.09 ± 0.09,1.11 ± 0.035,1.18 ± 0.037
SHCBP1 (UniProt Q8NEM2),1.09 ± 0.047,0.997 ± 0.077,1.09 ± 0.065,0.991 ± 0.032,1.02 ± 0.053,1.03 ± 0.059
TTC13 (UniProt Q8NBP0),1.12 ± 0.11,1.1 ± 0.087,1.07 ± 0.12,1.09 ± 0.06,1.1 ± 0.054,1.14 ± 0.048
CLYBL (UniProt Q8N0X4),1.03 ± 0.039,1 ± 0.028,1.05 ± 0.036,1.05 ± 0.032,0.991 ± 0.06,1.012 ± 0.0089
DTWD2 (UniProt Q8NBA8),1.06 ± 0.076,0.98 ± 0.084,1.02 ± 0.13,0.969 ± 0.1,0.916 ± 0.12,0.966 ± 0.053
MOSPD2 (UniProt Q8NHP6),0.991 ± 0.11,0.954 ± 0.088,0.984 ± 0.12,0.972 ± 0.09,0.992 ± 0.089,0.978 ± 0.074
UniProt Q8NBL1,0.979 ± 0.04,1 ± 0.061,0.968 ± 0.045,0.981 ± 0.041,0.954 ± 0.073,0.986 ± 0.07
UniProt Q8IWV8 and related entries,1.08 ± 0.078,1.04 ± 0.098,1.04 ± 0.064,0.967 ± 0.071,1.05 ± 0.053,1 ± 0.057
UniProt Q8N5A5-2|Q8N5A5 and related entries,1.08 ± 0.11,1.05 ± 0.088,1.08 ± 0.081,1.14 ± 0.13,1.1 ± 0.1,1.15 ± 0.096
WDFY1 (UniProt Q8IWB7),1.05 ± 0.11,1.02 ± 0.11,0.995 ± 0.13,0.926 ± 0.11,1.02 ± 0.097,0.982 ± 0.065
GPD1L (UniProt Q8N335),0.927 ± 0.031,0.95 ± 0.049,0.939 ± 0.045,0.932 ± 0.066,0.91 ± 0.035,0.935 ± 0.054
UniProt Q8IZH2 and related entries,1.05 ± 0.046,1.04 ± 0.03,1.07 ± 0.052,1.082 ± 0.0035,1.12 ± 0.049,1.106 ± 0.011
UniProt Q8IZ21 and related entries,0.904 ± 0.021,0.948 ± 0.021,0.951 ± 0.036,0.976 ± 0.029,0.905 ± 0.041,0.908 ± 0.076
UniProt Q8TAP9,0.818 ± 0.11,0.894 ± 0.066,0.891 ± 0.11,0.884 ± 0.16,0.901 ± 0.14,0.895 ± 0.15
PPP1R35 (UniProt Q8TAP8),0.861 ± 0.12,0.902 ± 0.031,0.958 ± 0.022,0.941 ± 0.06,0.956 ± 0.17,0.856 ± 0.026
DTWD1 (UniProt Q8N5C7),0.998 ± 0.069,0.945 ± 0.063,0.955 ± 0.062,0.941 ± 0.12,0.991 ± 0.033,0.99 ± 0.063
PCYOX1L (UniProt Q8NBM8),0.95 ± 0.05,0.978 ± 0.076,0.972 ± 0.046,0.928 ± 0.078,0.926 ± 0.047,0.976 ± 0.07

# Complete entries as entered above. Order of values: NP40-soluble protein abundance (concentration: 1mM)	NP40-soluble protein abundance (concentration: 2mM)	NP40-soluble protein abundance (concentration: 4mM)	NP40-soluble protein abundance (concentration: 6mM)	NP40-soluble protein abundance (concentration: 8mM)	NP40-soluble protein abundance (concentration: 10mM)
# SHCBP1 (UniProt Q8NEM2) is listed as 1.09 ± 0.047	0.997 ± 0.077	1.09 ± 0.065	0.991 ± 0.032	1.02 ± 0.053	1.03 ± 0.059
# ANKRD44 (UniProt Q8N8A2) is listed as 0.985 ± 0.086	0.952 ± 0.029	0.973 ± 0.056	0.965 ± 0.046	1 ± 0.07	0.982 ± 0.043
